The numbers were not newly measured in patent US20120093928A1, “ORAL METAXALONE COMPOSITIONS” (RANBAXY LABORATORIES LIMITED, priority 2007, published 2012), which cites them from elsewhere.

A value given as a limit tells only on which side of the number the result lay.

The conditions of this data set: oral, single 800 mg dosage.

With `Cc1cc(C)cc(OCC2CNC(=O)O2)c1` (centres unmarked) [metaxalone, 5-[(3,5-dimethyphenoxy)methyl]-2-oxazolidinone], the duration of action is 4 to 6 h and the onset of action was no more than 1 h.
